Reference: patent publication US11529390B2 (INSTITUT DE CARDIOLOGIE DE MONTREAL, priority 2015, dated 2022)

Experiment: Fmoc solid-phase peptide synthesis; rink amide resin
Details: whole synthesis, analytical RP-HPLC (Kinatex EVO C18); ESI-TOF MS

YGWSGNMERIMKAQAYQTGKDISTNYY
final HPLC purity: 95% purity or greater

Plain letter strings leave the end groups untold.
